Data as given in PubChem BioAssay AID652259 (Drosophila RNAi Screening Center, 2013).

- Aim: 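Genome-wide hunt for genes that control Wingless pathway activity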 (primary screen)
- Cells: Drosophila clone 8 imaginal disc epithelial cells
- Reagent: long dsRNA against Drosophila genes
- Challenge: pathway stimulated by co-transfected Wingless expression plasmid
- Measured: 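Dual luciferase reads per well after Wingless plasmid stimulation: reporter firefly light and Renilla control light; activity is firefly divided by Renilla, a ratio not deposited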
- Scale: firefly reporter light: higher = more Wg reporter light, before normalisation; Renilla control light: higher = more transfected or surviving cells
- Hit rule: 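Strong candidates differ from their plate mean by at least two out of four per-plate statistical tests; weak candidates meet just one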
- Meaning of the calls: active = candidate regulator (raises or lowers reporter); inactive = not a candidate
The screen tested about 22,000 reagents; shown is a random part of those with a known target gene and a result. Over the whole deposit, 233 (1.1%) are marked active. 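Light values are raw, unnormalised plate reads; the ratio scores behind the reporter calls were not deposited.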 Entries without a mark were called inactive. Reagents against one gene are numbered here. The record does not give: the amount of reagent, the time to read-out, the dose of the treatment.

For Echs1, the values are firefly reporter light, replicate 1 = 7319; Renilla control light, replicate 1 = 2627. Silencing of Ankrd49 gave: firefly reporter light, replicate 1 = 2355; firefly reporter light, replicate 2 = 4752; Renilla control light, replicate 1 = 1235; Renilla control light, replicate 2 = 2653. After knock-down of CG30377 #1 the results were firefly reporter light, replicate 1 = 12258; Renilla control light, replicate 1 = 2325. For CG30377 #2 the deposit lists firefly reporter light, replicate 1 = 3049; firefly reporter light, replicate 2 = 7328; Renilla control light, replicate 1 = 564; Renilla control light, replicate 2 = 1013. With knock-down of CG13585, the screen gave firefly reporter light, replicate 1 = 3412; firefly reporter light, replicate 2 = 9872; Renilla control light, replicate 1 = 1107; Renilla control light, replicate 2 = 4129. SCCRO scored firefly reporter light, replicate 1 = 7209; Renilla control light, replicate 1 = 2721.

After knock-down of HERC2, the screen gave firefly reporter light, replicate 1 = 19200; Renilla control light, replicate 1 = 11469. After knock-down of rk the results were firefly reporter light, replicate 1 = 1914; firefly reporter light, replicate 2 = 6253; Renilla control light, replicate 1 = 1130; Renilla control light, replicate 2 = 3341. Knock-down of Moe came out at: firefly reporter light, replicate 1 = 1280; firefly reporter light, replicate 2 = 7672; Renilla control light, replicate 1 = 557; Renilla control light, replicate 2 = 2145. Silencing of CG13713 resulted in: firefly reporter light, replicate 1 = 1210; firefly reporter light, replicate 2 = 8708; Renilla control light, replicate 1 = 760; Renilla control light, replicate 2 = 3451. Depletion of Dgat2 came out at: firefly reporter light, replicate 1 = 15220; Renilla control light, replicate 1 = 4277. Against CG7423, the entry reads firefly reporter light, replicate 1 = 18723; Renilla control light, replicate 1 = 9706.

After knock-down of fuss #1, the screen gave firefly reporter light, replicate 1 = 23048; Renilla control light, replicate 1 = 17223. With knock-down of fuss #2, the record shows firefly reporter light, replicate 1 = 4.24e5; firefly reporter light, replicate 2 = 4.39e5; Renilla control light, replicate 1 = 1.27e5; Renilla control light, replicate 2 = 1.42e5. CG12341 showed firefly reporter light, replicate 1 = 3925; firefly reporter light, replicate 2 = 7017; Renilla control light, replicate 1 = 972; Renilla control light, replicate 2 = 3179. Silencing of TTLL15 gave: firefly reporter light, replicate 1 = 13776; Renilla control light, replicate 1 = 2522. AP-1-2beta scored firefly reporter light, replicate 1 = 27257; Renilla control light, replicate 1 = 12640. Against CG34323 the deposit lists firefly reporter light, replicate 1 = 5200; Renilla control light, replicate 1 = 1928.

Knock-down of CG5715 gave: firefly reporter light, replicate 1 = 11418; Renilla control light, replicate 1 = 12679. With knock-down of CG7953, the screen gave firefly reporter light, replicate 1 = 9776; Renilla control light, replicate 1 = 3169. Silencing of CG1578 gave: firefly reporter light, replicate 1 = 2520; firefly reporter light, replicate 2 = 8274; Renilla control light, replicate 1 = 1267; Renilla control light, replicate 2 = 2709. FeCH showed firefly reporter light, replicate 1 = 1772; firefly reporter light, replicate 2 = 7088; Renilla control light, replicate 1 = 1178; Renilla control light, replicate 2 = 2496. Knock-down of cup resulted in: firefly reporter light, replicate 1 = 5994; Renilla control light, replicate 1 = 2409. Silencing of Pisd came out at: firefly reporter light, replicate 1 = 2073; firefly reporter light, replicate 2 = 6173; Renilla control light, replicate 1 = 1168; Renilla control light, replicate 2 = 1842.

CG14312 scored firefly reporter light, replicate 1 = 12468; Renilla control light, replicate 1 = 2764. Depletion of CG31191 #1 gave: firefly reporter light, replicate 1 = 5046; Renilla control light, replicate 1 = 2476. Depletion of CG31191 #2 resulted in: firefly reporter light, replicate 1 = 18652; Renilla control light, replicate 1 = 3042. Silencing of CG31191 #3 gave: firefly reporter light, replicate 1 = 13925; Renilla control light, replicate 1 = 2120. After knock-down of PH4alphaNE3 the results were firefly reporter light, replicate 1 = 3338; firefly reporter light, replicate 2 = 7968; Renilla control light, replicate 1 = 1235; Renilla control light, replicate 2 = 2653. Silencing of PEK came out at: firefly reporter light, replicate 1 = 9440; Renilla control light, replicate 1 = 3610.

With knock-down of CG4860 #1 the results were firefly reporter light, replicate 1 = 8823; Renilla control light, replicate 1 = 3802. Against CG4860 #2, the entry reads firefly reporter light, replicate 1 = 3.24e5; firefly reporter light, replicate 2 = 3.28e5; Renilla control light, replicate 1 = 1.74e5; Renilla control light, replicate 2 = 91848.
